Data reported in patent publication US12486401B2, “‘Smart’ hydrogel for the radiosensitization and sustained delivery of therapeutics triggered by irradiation” (The Trustees of the University of Pennsylvania, priority 2019, dated 2025).
At least one structure is not confirmed: it was looked up by name or label, or the drawing left a doubt.

How the values were obtained:
U251 DR5-Luc cells = experiment: Cell based high throughput death receptor screen (DR5-Luc reporter bioluminescence); conditions: compound at 100 nM, 24 h; positive control Tunicamycin 100 nM
Procedure: High throughput screening (HTS) was performed by the HTS core at the University of Pennsylvania. U251 DR5-Luc cells were plated at 2.0×10^3 cells/well across ten 384 well plates. Plates were then incubated in a humidified environment at 37° C. and 5% CO2 for twenty-four hours. Compound from the Selleckchem Bioactive Compound Library I was added to each well at 100 nM (approximately 3200 compounds). Tunicamycin (100 nM) and DMSO (0.1% v/v) served a positive and negative plate controls. Brite-Lite (PerkinElmer, Waltham, MA) reagent was added all plates twenty-four hours following the addition of compound, and plates were assayed on Envision Xcite (PerkinElmer) plate reader. The mean (μ) and standard deviation (σ) for each plate was used to transform total flux for each compound (xi) into z-scores using the formula z=(xi−μ/σ). Calculation of Z-prime for this screening assay was based upon the formula set forth by Zhang et al utilizing Tunicamycin and DMSO as a positive and negative controls respectively. Positive hits were identified as compounds that produced z-prime values greater than Tunicamycin. Reporter activity was validated following compound incubation and bioluminescence imaging on the IVIS spectrum (PerkinElmer).

NS039 = experiment: Compound dilution studies and cell viability (Cell Titer Glo); type: cell-based, human; conditions: NS039, 72 h
Procedure: (§1) Cells were plated at density of 7.5-1.0×10^4 cells/well in 96 well plates using their respective media. Plates were then incubated in a humidified environment at 37° C. and 5% CO2 for twenty-four hours. An eleven-point dilution series of positive hits from our HTS screen was added to each plate. Cells treated with 0.1% DMSO served as a vehicle control. Plates were incubated with compound for seventy-two hours at 37° C. and 5% CO2, followed by addition of Cell Titer Glo® (Promega). Bio-luminescent readings were obtained using a Synergy HT luminometer (BioTek, Winooski, VT). Raw bio-luminescent values were normalized to their vehicle treated controls, and then fit to a modified Hill Equation using OriginPro 8 (OriginLab, Northampton, MA) in order to calculate IC50 values. All dilution series experiments were performed as biological triplicates.

T4213 = experiment: as above; type: cell-based; conditions: T4213, 72 h
Procedure: as §1

With `Cc1[nH]c2ccccc2c1CCNCc1ccc(/C=C/C(=O)NO)cc1` [Panobinostat] the “bioluminescent signal in cell-based death receptor assay” value (U251 DR5-Luc cells) was “greater than our positive control Tunicamycin”, the IC50 (NS039) was “single digit nanomolar” and the IC50 (T4213) was “single digit nanomolar”.
